Measurements reported in PubChem BioAssay AID1259254 (NCATS, 2017).
Assay: 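Genome-wide screen for genes that prevent DNA re-replication in cancer cells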 (primary screen). System: human HCT116 colorectal cancer cells. Reagents: single siRNA against human genes. Timing: 3 days. Measured: 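Imaged Hoechst DNA stain sorts each cell into a cycle phase by DNA amount; per plate, G2 fraction set to 0% for non-targeting and 100% for GMNN siRNA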. Reading the numbers: G2 robust z-score and G2 cells, % of GMNN control: higher = more G2 cells, more excess DNA replication; raw share of cells in G2: higher = larger share of cells with G2 DNA content. Hit rule: 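An siRNA counts as active if its G2 robust z-score lies at least 5 MADs above the screen median; here such calls match roughly 38% of GMNN control or more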.
This is a random part of about 59,000 reagents tested. Over the whole deposit, about 1,550 (2.6%) are marked active. 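G2 share is only a proxy for re-replication; each gene was hit by three separate siRNAs, and active genes were retested.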 Raw values are not corrected between plates. A number with no mark means an inactive call. The numbers tell different reagents against one gene apart. Not stated in the record: the amount of reagent.

gene knocked down | siRNA no. | G2 robust z-score | G2 cells, % of GMNN control | raw share of cells in G2 (%)
CEP70 | 1 | 0.129 | 3.87 | 6.05
CEP70 | 2 | 0.721 | 8.04 | 7.82
CEP70 | 3 | 0.167 | 4.14 | 3.51
BANP | 1 | 0.0516 | 3.33 | 4.8
BANP | 2 | -1.16 | -5.17 | 2.09
BANP | 3 | 0.0305 | 3.18 | 4.24
RNF31 | 1 | -0.745 | -2.28 | 5.43
RNF31 | 2 | -0.62 | -1.4 | 3.94
RNF31 | 3 | 0.0502 | 3.32 | 5.72
CIMAP3 | 1 | -0.367 | 0.385 | 4.32
CIMAP3 | 2 | -0.437 | -0.109 | 3.07
CIMAP3 | 3 | 0.7 | 7.89 | 5.44
SRRD | 1 | 0.154 | 4.05 | 5.28
SRRD | 2 | 1.07 | 10.5 | 7.68
SRRD | 3 | 1.31 | 12.2 | 9.84
LRIG2 | 1 | -0.39 | 0.222 | 4.84
LRIG2 | 2 | -0.575 | -1.08 | 4.8
LRIG2 | 3 | -0.736 | -2.21 | 2.45
TAF9B | 1 | -0.45 | -0.196 | 3.73
TAF9B | 2 | 0.748 | 8.23 | 9.69
TAF9B | 3 | -0.47 | -0.341 | 4.12
OBP2B | 1 | 0.138 | 3.94 | 7.95
OBP2B | 2 | -0.477 | -0.387 | 4.06
OBP2B | 3 | 0.304 | 5.11 | 5.66
NOP58 | 1 | 2.66 | 21.7 | 12.3
NOP58 | 2 | 0.154 | 4.05 | 5.35
NOP58 | 3 | 2.9 | 23.3 | 16.5
TRPM1 | 1 | 5.99 (active) | 45.1 | 21.7
TRPM1 | 2 | -1.48 | -7.44 | 2.26
TRPM1 | 3 | -0.466 | -0.311 | 4.25
IDO2 | 1 | 0.827 | 8.79 | 5.54
IDO2 | 2 | -0.571 | -1.05 | 3.23
IDO2 | 3 | -0.399 | 0.157 | 3.01
RPS15AP9 | 1 | -0.73 | -2.17 | 2.79
RPS15AP9 | 2 | 0.241 | 4.66 | 5.19
RPS15AP9 | 3 | -1.17 | -5.26 | 1.33
LBP | 1 | -0.356 | 0.466 | 3.35
LBP | 2 | -0.332 | 0.631 | 5.6
LBP | 3 | 3.19 | 25.4 | 15.5
KRT42P | 1 | 0.936 | 9.55 | 7.12
KRT42P | 2 | 2.37 | 19.7 | 10.6
KRT42P | 3 | 0.442 | 6.08 | 5.11
TAFA5 | 1 | 6.66 (active) | 49.9 | 23.2
TAFA5 | 2 | -0.535 | -0.797 | 3.59
TAFA5 | 3 | 0.231 | 4.59 | 4.9
CYB561 | 1 | 2.2 | 18.5 | 10.5
CYB561 | 2 | 1.46 | 13.2 | 9.69
CYB561 | 3 | -0.61 | -1.32 | 4.51
GSG1 | 1 | 0.467 | 6.26 | 6.19
GSG1 | 2 | 0.279 | 4.93 | 4.92
GSG1 | 3 | -0.751 | -2.31 | 1.7
ECI2 | 1 | 1.58 | 14.1 | 8.39
ECI2 | 2 | -0.668 | -1.73 | 5.79
ECI2 | 3 | 3.49 | 27.5 | 17.7
DROSHA | 1 | -1.19 | -5.37 | 2.4
DROSHA | 2 | 2.26 | 18.9 | 10.2
DROSHA | 3 | -0.401 | 0.148 | 6.23
MRPS16 | 1 | -0.943 | -3.67 | 2.45
MRPS16 | 2 | 2.47 | 20.4 | 12.2
MRPS16 | 3 | 0.0708 | 3.47 | 4.35
CPTP | 1 | -0.415 | 0.0442 | 4.46
CPTP | 2 | -0.734 | -2.2 | 3.34
CPTP | 3 | 1.31 | 12.2 | 5.71
SPTLC2 | 1 | 0.867 | 9.07 | 8.63
SPTLC2 | 2 | -0.356 | 0.46 | 3.36
SPTLC2 | 3 | -0.0385 | 2.7 | 5.84
SLC6A15 | 1 | 2.46 | 20.3 | 12.8
SLC6A15 | 2 | -0.79 | -2.59 | 5.29
SLC6A15 | 3 | -0.87 | -3.15 | 3.31
